Results are given in words; binding and its absence hold for the method and conditions named. In cells and extracts the contact can be indirect. Here binding means that the protein was enriched with, or labelled near, the bait; the list need not be complete.
T1: endogenous RORβ of Y79 human retinoblastoma cells (human (endogenous in Y79)) (UniProt Q92753)
T1 sequence: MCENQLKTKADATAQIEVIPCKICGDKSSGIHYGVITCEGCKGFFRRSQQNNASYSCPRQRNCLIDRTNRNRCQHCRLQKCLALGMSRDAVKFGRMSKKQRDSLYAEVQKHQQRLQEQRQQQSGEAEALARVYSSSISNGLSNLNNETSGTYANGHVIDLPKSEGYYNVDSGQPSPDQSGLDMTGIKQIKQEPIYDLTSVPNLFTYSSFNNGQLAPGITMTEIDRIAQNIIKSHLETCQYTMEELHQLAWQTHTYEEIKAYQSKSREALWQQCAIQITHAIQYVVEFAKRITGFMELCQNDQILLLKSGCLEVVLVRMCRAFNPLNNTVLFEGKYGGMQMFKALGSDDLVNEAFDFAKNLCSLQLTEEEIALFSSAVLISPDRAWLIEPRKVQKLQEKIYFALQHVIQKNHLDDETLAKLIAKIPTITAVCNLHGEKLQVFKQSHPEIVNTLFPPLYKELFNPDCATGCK

Amino acid sequences for entries named in this document (tags omitted).
UniProt Q92793: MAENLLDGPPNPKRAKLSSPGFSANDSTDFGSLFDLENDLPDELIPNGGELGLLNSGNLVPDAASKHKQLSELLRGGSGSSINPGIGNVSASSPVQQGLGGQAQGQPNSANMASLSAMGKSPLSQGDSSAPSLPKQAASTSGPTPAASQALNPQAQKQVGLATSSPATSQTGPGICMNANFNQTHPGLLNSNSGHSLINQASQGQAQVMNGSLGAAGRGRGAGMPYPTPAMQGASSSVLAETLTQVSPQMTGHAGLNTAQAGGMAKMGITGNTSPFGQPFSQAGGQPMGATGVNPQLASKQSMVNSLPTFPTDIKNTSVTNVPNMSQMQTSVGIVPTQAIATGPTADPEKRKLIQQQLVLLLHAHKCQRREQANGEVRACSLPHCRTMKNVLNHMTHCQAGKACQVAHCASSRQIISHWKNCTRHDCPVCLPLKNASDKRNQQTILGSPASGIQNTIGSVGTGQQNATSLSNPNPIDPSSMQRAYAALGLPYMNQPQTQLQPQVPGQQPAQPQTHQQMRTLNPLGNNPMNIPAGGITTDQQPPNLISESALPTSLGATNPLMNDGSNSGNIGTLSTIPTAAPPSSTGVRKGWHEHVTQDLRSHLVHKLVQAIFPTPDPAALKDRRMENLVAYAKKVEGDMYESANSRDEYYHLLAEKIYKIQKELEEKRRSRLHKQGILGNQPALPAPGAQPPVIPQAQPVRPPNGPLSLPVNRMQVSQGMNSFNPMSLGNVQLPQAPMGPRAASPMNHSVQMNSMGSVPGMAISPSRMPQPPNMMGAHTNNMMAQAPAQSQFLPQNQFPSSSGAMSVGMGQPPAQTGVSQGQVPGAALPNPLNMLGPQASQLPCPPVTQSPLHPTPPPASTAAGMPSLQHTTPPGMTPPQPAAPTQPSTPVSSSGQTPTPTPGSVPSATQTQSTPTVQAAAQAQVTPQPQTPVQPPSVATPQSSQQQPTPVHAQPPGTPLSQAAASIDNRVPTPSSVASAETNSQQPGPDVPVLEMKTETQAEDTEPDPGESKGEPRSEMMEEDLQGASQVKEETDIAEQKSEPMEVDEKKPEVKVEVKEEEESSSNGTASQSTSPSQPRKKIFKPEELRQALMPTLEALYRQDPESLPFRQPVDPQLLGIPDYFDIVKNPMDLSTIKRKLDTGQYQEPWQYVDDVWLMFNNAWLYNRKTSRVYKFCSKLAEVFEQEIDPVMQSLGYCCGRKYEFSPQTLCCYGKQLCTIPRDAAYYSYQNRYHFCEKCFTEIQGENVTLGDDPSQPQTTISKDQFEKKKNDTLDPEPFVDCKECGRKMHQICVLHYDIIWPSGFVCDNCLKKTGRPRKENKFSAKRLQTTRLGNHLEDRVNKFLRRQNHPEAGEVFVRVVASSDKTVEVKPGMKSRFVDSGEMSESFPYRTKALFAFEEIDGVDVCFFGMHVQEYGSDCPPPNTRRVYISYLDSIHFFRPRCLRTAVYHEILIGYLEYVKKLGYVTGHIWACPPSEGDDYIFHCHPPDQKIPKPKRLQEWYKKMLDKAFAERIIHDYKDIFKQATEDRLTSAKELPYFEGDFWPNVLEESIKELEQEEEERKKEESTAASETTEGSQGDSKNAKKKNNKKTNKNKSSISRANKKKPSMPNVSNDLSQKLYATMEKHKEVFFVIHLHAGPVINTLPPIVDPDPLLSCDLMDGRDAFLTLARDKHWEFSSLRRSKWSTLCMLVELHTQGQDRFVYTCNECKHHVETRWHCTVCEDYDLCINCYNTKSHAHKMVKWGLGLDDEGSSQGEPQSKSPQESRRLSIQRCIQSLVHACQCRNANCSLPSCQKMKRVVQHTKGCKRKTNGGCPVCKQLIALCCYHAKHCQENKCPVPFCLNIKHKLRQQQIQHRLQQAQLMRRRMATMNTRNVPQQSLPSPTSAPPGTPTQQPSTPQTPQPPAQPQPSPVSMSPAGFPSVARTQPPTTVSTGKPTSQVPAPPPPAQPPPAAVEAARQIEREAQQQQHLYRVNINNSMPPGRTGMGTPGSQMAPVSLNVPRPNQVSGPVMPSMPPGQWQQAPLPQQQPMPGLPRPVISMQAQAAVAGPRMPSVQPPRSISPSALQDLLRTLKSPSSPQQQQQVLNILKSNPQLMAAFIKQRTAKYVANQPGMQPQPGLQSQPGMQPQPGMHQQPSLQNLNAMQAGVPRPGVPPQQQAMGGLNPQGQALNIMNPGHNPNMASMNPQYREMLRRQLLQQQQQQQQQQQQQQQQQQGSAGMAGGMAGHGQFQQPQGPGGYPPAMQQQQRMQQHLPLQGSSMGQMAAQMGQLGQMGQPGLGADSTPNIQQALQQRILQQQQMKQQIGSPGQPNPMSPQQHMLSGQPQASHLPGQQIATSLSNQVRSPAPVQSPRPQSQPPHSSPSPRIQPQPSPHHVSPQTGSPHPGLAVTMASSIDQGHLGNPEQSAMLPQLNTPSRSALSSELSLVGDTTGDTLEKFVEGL
UniProt Q09472: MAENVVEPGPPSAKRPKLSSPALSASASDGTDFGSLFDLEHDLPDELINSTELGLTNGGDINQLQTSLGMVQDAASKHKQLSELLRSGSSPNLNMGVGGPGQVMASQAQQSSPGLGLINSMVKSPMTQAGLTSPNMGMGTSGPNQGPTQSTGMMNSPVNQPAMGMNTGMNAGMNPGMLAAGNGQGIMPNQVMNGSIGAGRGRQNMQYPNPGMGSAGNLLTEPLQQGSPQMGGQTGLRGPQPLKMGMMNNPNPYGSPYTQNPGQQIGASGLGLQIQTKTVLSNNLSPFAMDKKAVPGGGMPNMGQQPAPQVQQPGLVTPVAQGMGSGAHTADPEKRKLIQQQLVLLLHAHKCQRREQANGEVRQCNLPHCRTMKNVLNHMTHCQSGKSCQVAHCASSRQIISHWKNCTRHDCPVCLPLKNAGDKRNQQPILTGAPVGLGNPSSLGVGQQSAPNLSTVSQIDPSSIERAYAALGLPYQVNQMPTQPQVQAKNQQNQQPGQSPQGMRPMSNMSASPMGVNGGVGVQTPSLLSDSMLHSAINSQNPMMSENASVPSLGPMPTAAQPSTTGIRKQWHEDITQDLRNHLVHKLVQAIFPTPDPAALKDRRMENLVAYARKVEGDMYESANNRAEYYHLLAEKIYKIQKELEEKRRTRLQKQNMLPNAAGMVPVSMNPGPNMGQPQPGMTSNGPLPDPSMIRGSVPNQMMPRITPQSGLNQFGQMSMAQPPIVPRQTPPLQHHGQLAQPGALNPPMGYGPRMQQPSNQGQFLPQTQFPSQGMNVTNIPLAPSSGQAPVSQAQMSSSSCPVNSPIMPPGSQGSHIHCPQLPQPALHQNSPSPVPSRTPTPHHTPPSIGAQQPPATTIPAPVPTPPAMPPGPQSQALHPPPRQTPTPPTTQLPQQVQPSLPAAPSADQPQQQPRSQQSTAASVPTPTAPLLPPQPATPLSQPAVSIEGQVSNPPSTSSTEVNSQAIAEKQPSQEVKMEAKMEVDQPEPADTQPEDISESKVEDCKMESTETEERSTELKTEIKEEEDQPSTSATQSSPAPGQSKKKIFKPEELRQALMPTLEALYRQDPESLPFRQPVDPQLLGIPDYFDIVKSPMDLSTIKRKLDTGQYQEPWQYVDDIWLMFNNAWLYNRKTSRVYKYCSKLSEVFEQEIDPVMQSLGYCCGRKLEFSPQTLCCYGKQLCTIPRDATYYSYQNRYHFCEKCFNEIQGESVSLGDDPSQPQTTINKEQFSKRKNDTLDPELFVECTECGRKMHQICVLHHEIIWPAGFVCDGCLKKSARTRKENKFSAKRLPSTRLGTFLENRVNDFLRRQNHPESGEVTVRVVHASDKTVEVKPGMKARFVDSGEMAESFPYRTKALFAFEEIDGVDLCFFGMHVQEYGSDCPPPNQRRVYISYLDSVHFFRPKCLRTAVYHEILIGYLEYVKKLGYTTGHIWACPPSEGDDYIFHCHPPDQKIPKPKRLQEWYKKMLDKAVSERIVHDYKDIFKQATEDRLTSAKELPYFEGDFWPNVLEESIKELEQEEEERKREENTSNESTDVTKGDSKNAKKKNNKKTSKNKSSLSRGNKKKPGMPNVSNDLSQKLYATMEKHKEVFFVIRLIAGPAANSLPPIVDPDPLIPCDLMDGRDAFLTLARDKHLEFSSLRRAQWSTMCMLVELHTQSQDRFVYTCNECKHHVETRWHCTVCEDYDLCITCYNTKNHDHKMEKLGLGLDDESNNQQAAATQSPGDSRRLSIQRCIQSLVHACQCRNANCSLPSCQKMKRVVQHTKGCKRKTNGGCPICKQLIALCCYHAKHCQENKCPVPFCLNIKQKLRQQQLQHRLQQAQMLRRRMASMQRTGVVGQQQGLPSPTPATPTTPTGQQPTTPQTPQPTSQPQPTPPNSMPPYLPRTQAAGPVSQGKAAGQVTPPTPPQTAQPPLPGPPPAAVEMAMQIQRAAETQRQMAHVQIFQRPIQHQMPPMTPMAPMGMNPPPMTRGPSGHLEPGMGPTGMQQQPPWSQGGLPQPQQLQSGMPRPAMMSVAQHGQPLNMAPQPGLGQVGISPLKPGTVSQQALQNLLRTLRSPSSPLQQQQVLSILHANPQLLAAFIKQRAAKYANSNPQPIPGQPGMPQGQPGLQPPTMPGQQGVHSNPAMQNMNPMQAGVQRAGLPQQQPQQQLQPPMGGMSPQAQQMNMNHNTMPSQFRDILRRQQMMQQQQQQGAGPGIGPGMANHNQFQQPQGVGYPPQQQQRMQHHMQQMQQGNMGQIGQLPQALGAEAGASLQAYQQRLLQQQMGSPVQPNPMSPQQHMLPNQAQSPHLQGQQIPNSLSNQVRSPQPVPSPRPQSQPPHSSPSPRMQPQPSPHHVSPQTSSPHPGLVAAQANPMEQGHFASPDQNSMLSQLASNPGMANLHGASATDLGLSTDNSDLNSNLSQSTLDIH

T2: His-HA-RORβ (isoform 1) (human, UniProt Q92753-1 1-459)
T2 construct: Retinoic acid receptor-related orphan receptor beta (RORβ), human, isoform 1 (RORβ1); the printed residue numbers (K11 to K459 at the C-terminus of the LBD) fit the 459-residue form; Same plasmid used in TC28a2 (RIME) and HEK293T (co-IP, IP-MS); also called HA-tagged RORβ; RORβ WT; source: TC28a2 or HEK293T, transiently transfected (pCMV6), in lysate
T2 sequence (looked up): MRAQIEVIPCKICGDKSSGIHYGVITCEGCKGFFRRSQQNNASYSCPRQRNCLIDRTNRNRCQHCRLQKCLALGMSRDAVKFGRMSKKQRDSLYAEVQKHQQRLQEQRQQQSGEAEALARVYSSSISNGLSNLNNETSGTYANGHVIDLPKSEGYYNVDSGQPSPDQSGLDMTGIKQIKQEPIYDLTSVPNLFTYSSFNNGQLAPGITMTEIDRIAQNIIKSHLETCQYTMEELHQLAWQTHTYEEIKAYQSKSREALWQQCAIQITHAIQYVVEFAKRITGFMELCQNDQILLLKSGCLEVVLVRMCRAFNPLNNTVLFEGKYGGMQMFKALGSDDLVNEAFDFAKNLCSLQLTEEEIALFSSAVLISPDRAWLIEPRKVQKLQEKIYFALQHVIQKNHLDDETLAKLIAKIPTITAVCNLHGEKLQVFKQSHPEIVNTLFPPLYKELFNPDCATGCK


Assays:
[1] = biological target: T1, endogenous RORβ of Y79 human retinoblastoma cells (human (endogenous in Y79)); assay: affinity purification with mass spectrometry; standard IP-MS without crosslinking, endogenous RORβ immunoprecipitated from Y79 human retinoblastoma cells, n=3
His-HA-RORβ (isoform 1) = biological target: T2, His-HA-RORβ (isoform 1); assay: affinity purification with mass spectrometry; RIME: HA-RORβ transfected in TC28a2 chondrocytes, 1% formaldehyde crosslinking in cells, nuclear lysate, anti-HA magnetic beads, HA-peptide-blocked control; also with SIRT1 activator SRT2104 against DMSO

| Molecule | binding [1] | binding (His-HA-RORβ (isoform 1)) |
| --- | --- | --- |
| CREBBP, endogenous in Y79 human retinoblastoma cells (from UniProt Q92793 1-2442) (enzyme) | binds |  |
| lysine acetyltransferase p300 (EP300), endogenous in TC28a2 (from UniProt Q09472 1-2414) (enzyme) |  | binds |
| PIAS1, endogenous in TC28a2 (enzyme, human (endogenous in TC28a2), UniProt O75925 1-651, looked up, E3 SUMO-protein ligase PIAS1, endogenous in TC28a2 human chondrocytes; source: endogenous, TC28a2 nuclear lysate) MADSAELKQMVMSLRVSELQVLLGYAGRNKHGRKHELLTKALHLLKAGCSPAVQMKIKELYRRRFPQKIMTPADLSIPNVHSSPMPATLSPSTIPQLTYDGHPASSPLLPVSLLGPKHELELPHLTSALHPVHPDIKLQKLPFYDLLDELIKPTSLASDNSQRFRETCFAFALTPQQVQQISSSMDISGTKCDFTVQVQLRFCLSETSCPQEDHFPPNLCVKVNTKPCSLPGYLPPTKNGVEPKRPSRPINITSLVRLSTTVPNTIVVSWTAEIGRNYSMAVYLVKQLSSTVLLQRLRAKGIRNPDHSRALIKEKLTADPDSEIATTSLRVSLLCPLGKMRLTIPCRALTCSHLQCFDATLYIQMNEKKPTWVCPVCDKKAPYEHLIIDGLFMEILKYCTDCDEIQFKEDGTWAPMRSKKEVQEVSASYNGVDGCLSSTLEHQVASHHQSSNKNKKVEVIDLTIDSSSDEEEEEPSAKRTCPSLSPTSPLNNKGILSLPHQASPVSRTPSLPAVDTSYINTSLIQDYRHPFHMTPMPYDLQGLDFFPFLSGDNQHYNTSLLAAAAAAVSDDQDLLHSSRFFPYTSSQMFLDQLSAGGSTSLPTTNGSSSGSNSSLVSSNSLRESHSHTVTNRSSTDTASIFGIIPDIISLD |  | binds |

Reference: publication PMC13419597, “An Acetylation-Primed SUMOylation Switch Controls RORβ Stability through a p300-SIRT1 Regulatory Axis” (Research Square, 2024)
